Results as given in article PMC3889402.
No constants are given. Whether binding was seen depends on the method and setting. Binding seen in cells or lysates may run through a third protein. Some results given as binding are weak or reduced against the parent protein; the word gives no strength. For part of these data: Sequences can lack the tags named with a protein.

T1: overexpressed gp78, Q9UKV5
T1 chain: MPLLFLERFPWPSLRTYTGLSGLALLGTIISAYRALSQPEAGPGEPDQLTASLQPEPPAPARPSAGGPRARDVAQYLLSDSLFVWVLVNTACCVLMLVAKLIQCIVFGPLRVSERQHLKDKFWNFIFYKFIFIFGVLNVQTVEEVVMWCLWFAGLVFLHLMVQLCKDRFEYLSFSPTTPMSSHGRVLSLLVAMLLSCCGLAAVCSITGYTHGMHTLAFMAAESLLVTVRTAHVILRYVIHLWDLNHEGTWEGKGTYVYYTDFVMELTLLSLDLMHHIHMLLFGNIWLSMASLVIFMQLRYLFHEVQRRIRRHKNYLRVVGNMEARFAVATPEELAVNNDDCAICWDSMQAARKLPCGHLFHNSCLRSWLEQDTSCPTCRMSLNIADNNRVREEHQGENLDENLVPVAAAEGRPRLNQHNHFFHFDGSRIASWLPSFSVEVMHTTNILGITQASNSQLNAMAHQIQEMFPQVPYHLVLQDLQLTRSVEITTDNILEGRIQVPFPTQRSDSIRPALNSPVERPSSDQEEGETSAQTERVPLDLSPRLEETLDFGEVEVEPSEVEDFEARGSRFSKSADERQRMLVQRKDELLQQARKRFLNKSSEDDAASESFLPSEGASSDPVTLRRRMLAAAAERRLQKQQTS

T2: GST-USP13, Q92995
T2 chain: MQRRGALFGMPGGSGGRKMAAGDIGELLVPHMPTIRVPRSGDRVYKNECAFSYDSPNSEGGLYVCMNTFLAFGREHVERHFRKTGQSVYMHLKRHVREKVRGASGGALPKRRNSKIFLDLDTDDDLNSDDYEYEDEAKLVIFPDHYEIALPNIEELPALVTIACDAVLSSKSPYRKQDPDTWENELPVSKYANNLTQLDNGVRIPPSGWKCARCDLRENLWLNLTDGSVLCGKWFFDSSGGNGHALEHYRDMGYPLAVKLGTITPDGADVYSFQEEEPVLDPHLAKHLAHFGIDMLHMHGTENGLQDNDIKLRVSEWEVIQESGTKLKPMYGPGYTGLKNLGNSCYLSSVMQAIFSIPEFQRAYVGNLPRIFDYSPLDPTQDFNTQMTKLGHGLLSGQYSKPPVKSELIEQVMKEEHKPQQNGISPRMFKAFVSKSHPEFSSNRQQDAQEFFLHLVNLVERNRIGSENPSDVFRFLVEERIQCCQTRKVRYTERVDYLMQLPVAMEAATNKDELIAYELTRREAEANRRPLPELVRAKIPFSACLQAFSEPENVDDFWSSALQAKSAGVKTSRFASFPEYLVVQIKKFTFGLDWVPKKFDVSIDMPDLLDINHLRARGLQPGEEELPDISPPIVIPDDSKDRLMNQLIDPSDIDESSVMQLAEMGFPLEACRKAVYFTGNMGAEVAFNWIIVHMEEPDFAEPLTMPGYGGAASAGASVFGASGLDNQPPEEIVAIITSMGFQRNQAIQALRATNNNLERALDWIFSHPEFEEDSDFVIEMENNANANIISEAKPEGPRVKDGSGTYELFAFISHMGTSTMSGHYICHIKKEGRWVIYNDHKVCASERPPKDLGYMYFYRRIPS

T3: FLAG-USP13, Q92995
T3 chain: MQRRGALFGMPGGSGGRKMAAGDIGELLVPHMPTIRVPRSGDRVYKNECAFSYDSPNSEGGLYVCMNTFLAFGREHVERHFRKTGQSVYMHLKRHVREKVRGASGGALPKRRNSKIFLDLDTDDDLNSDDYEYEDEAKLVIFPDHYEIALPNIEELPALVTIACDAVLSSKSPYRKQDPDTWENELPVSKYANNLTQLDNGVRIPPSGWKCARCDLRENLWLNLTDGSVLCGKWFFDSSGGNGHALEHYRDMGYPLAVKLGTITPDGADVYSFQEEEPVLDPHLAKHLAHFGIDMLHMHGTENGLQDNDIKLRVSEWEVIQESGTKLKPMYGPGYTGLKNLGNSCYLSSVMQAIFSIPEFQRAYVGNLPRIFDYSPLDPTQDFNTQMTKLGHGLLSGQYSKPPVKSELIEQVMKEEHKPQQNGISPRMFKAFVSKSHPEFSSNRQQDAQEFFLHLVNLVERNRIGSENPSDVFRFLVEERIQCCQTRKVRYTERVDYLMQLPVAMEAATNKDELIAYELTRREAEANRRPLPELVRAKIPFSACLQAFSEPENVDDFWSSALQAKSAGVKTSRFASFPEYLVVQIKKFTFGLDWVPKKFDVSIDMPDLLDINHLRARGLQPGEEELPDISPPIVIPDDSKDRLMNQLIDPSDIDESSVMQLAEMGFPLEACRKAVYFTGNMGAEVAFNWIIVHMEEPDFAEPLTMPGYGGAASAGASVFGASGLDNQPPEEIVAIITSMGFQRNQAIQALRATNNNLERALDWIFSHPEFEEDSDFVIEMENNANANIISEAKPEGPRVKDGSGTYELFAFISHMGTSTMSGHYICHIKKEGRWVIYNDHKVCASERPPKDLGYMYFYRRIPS

T4: endogenous USP13 (human (endogenous in HEK293)), Q92995
T4 chain: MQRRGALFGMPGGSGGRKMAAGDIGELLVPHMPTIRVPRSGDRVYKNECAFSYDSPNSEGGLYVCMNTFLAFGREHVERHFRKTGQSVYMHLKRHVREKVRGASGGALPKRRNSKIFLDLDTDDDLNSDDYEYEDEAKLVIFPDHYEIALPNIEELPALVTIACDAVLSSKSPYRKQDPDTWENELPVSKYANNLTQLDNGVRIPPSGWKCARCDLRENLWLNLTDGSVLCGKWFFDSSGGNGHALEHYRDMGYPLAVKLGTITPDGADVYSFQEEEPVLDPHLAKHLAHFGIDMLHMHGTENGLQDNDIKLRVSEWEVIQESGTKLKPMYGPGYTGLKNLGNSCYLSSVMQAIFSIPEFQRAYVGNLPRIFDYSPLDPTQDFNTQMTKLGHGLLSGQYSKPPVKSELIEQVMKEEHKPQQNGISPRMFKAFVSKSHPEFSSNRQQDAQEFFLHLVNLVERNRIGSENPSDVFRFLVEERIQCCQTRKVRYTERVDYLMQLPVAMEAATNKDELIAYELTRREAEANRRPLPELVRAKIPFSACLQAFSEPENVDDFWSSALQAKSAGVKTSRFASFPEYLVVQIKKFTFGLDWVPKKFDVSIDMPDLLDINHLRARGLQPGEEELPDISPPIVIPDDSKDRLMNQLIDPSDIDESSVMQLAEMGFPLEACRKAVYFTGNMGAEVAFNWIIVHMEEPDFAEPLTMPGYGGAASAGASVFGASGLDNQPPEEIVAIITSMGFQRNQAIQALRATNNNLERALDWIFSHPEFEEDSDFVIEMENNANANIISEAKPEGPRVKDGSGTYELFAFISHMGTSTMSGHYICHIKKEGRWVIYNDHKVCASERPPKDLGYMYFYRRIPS


Key:
Settings in all cases: remark: other sources report otherwise
[1] = target: T1, overexpressed gp78, Q9UKV5; assay: co-IP; sequential immunoprecipitation: extract of cells expressing FLAG-USP13 and untagged gp78, first FLAG beads, elution with FLAG peptide (0.2 mg/ml), then anti-gp78 or control antibody
GST-USP13, Q92995 = target: T2, GST-USP13, Q92995; assay: pull-down; glutathione beads with purified GST-tagged protein incubated with whole cell extracts (control, gp78-expressing, gp78 knock-down or knock-out cells; depletion of gp78 reduced the USP13-p97 interaction threefold to fourfold and did not affect USP13-Bag6); immunoblotting; only the target purified
FLAG-USP13, Q92995 = target: T3, FLAG-USP13, Q92995; assay: co-IP; extracts of transfected cells (FLAG-tagged DUB or chimera, in part with gp78), immunoprecipitation with FLAG beads; NP40 lysis buffer; immunoblotting
[2] = target: T4, endogenous USP13 (human (endogenous in …)); assay: co-IP; whole cell extract, immunoprecipitation with control or anti-USP13 antibodies; all proteins endogenous; immunoblotting

| binding [1] | binding (GST-USP13, Q92995) | binding (FLAG-USP13, Q92995) | binding [2] | Binder |
| --- | --- | --- | --- | --- |
| binds | – | – | – | FLAG-USP13, Q92995 1-863 (enzyme) MQRRGALFGMPGGSGGRKMAAGDIGELLVPHMPTIRVPRSGDRVYKNECAFSYDSPNSEGGLYVCMNTFLAFGREHVERHFRKTGQSVYMHLKRHVREKVRGASGGALPKRRNSKIFLDLDTDDDLNSDDYEYEDEAKLVIFPDHYEIALPNIEELPALVTIACDAVLSSKSPYRKQDPDTWENELPVSKYANNLTQLDNGVRIPPSGWKCARCDLRENLWLNLTDGSVLCGKWFFDSSGGNGHALEHYRDMGYPLAVKLGTITPDGADVYSFQEEEPVLDPHLAKHLAHFGIDMLHMHGTENGLQDNDIKLRVSEWEVIQESGTKLKPMYGPGYTGLKNLGNSCYLSSVMQAIFSIPEFQRAYVGNLPRIFDYSPLDPTQDFNTQMTKLGHGLLSGQYSKPPVKSELIEQVMKEEHKPQQNGISPRMFKAFVSKSHPEFSSNRQQDAQEFFLHLVNLVERNRIGSENPSDVFRFLVEERIQCCQTRKVRYTERVDYLMQLPVAMEAATNKDELIAYELTRREAEANRRPLPELVRAKIPFSACLQAFSEPENVDDFWSSALQAKSAGVKTSRFASFPEYLVVQIKKFTFGLDWVPKKFDVSIDMPDLLDINHLRARGLQPGEEELPDISPPIVIPDDSKDRLMNQLIDPSDIDESSVMQLAEMGFPLEACRKAVYFTGNMGAEVAFNWIIVHMEEPDFAEPLTMPGYGGAASAGASVFGASGLDNQPPEEIVAIITSMGFQRNQAIQALRATNNNLERALDWIFSHPEFEEDSDFVIEMENNANANIISEAKPEGPRVKDGSGTYELFAFISHMGTSTMSGHYICHIKKEGRWVIYNDHKVCASERPPKDLGYMYFYRRIPS |
| – | binds | binds | – | overexpressed gp78, Q9UKV5 1-643 (enzyme) MPLLFLERFPWPSLRTYTGLSGLALLGTIISAYRALSQPEAGPGEPDQLTASLQPEPPAPARPSAGGPRARDVAQYLLSDSLFVWVLVNTACCVLMLVAKLIQCIVFGPLRVSERQHLKDKFWNFIFYKFIFIFGVLNVQTVEEVVMWCLWFAGLVFLHLMVQLCKDRFEYLSFSPTTPMSSHGRVLSLLVAMLLSCCGLAAVCSITGYTHGMHTLAFMAAESLLVTVRTAHVILRYVIHLWDLNHEGTWEGKGTYVYYTDFVMELTLLSLDLMHHIHMLLFGNIWLSMASLVIFMQLRYLFHEVQRRIRRHKNYLRVVGNMEARFAVATPEELAVNNDDCAICWDSMQAARKLPCGHLFHNSCLRSWLEQDTSCPTCRMSLNIADNNRVREEHQGENLDENLVPVAAAEGRPRLNQHNHFFHFDGSRIASWLPSFSVEVMHTTNILGITQASNSQLNAMAHQIQEMFPQVPYHLVLQDLQLTRSVEITTDNILEGRIQVPFPTQRSDSIRPALNSPVERPSSDQEEGETSAQTERVPLDLSPRLEETLDFGEVEVEPSEVEDFEARGSRFSKSADERQRMLVQRKDELLQQARKRFLNKSSEDDAASESFLPSEGASSDPVTLRRRMLAAAAERRLQKQQTS |
| – | binds | binds | binds | endogenous gp78, Q9UKV5 1-643 (enzyme) MPLLFLERFPWPSLRTYTGLSGLALLGTIISAYRALSQPEAGPGEPDQLTASLQPEPPAPARPSAGGPRARDVAQYLLSDSLFVWVLVNTACCVLMLVAKLIQCIVFGPLRVSERQHLKDKFWNFIFYKFIFIFGVLNVQTVEEVVMWCLWFAGLVFLHLMVQLCKDRFEYLSFSPTTPMSSHGRVLSLLVAMLLSCCGLAAVCSITGYTHGMHTLAFMAAESLLVTVRTAHVILRYVIHLWDLNHEGTWEGKGTYVYYTDFVMELTLLSLDLMHHIHMLLFGNIWLSMASLVIFMQLRYLFHEVQRRIRRHKNYLRVVGNMEARFAVATPEELAVNNDDCAICWDSMQAARKLPCGHLFHNSCLRSWLEQDTSCPTCRMSLNIADNNRVREEHQGENLDENLVPVAAAEGRPRLNQHNHFFHFDGSRIASWLPSFSVEVMHTTNILGITQASNSQLNAMAHQIQEMFPQVPYHLVLQDLQLTRSVEITTDNILEGRIQVPFPTQRSDSIRPALNSPVERPSSDQEEGETSAQTERVPLDLSPRLEETLDFGEVEVEPSEVEDFEARGSRFSKSADERQRMLVQRKDELLQQARKRFLNKSSEDDAASESFLPSEGASSDPVTLRRRMLAAAAERRLQKQQTS |
